Experimental data taken from the supplement of paper PMC12823440, “Inhibitors supercharge kinase turnover through native proteolytic circuits” (Nature, 2025).
Where a name gives a salt, the structure may show the parent alone. This is one part of the list. The calls rarely recur for the same compound in another form.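 In K562 cells expressing nanoluciferase-fused kinases, luminescence was recorded at 4 h intervals between 2 and 18 h, normalized as percent of control with DMSO at 100% and a positive control at 0%. A significant (2 sigma) signal drop marks a time point as decreased. The authors' rule for a hit is not shown and takes in more than the number of time points.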

By UniProt entry, the sequences of proteins in these tests, tags left out.
UniProt Q05397, whole entry, looked up: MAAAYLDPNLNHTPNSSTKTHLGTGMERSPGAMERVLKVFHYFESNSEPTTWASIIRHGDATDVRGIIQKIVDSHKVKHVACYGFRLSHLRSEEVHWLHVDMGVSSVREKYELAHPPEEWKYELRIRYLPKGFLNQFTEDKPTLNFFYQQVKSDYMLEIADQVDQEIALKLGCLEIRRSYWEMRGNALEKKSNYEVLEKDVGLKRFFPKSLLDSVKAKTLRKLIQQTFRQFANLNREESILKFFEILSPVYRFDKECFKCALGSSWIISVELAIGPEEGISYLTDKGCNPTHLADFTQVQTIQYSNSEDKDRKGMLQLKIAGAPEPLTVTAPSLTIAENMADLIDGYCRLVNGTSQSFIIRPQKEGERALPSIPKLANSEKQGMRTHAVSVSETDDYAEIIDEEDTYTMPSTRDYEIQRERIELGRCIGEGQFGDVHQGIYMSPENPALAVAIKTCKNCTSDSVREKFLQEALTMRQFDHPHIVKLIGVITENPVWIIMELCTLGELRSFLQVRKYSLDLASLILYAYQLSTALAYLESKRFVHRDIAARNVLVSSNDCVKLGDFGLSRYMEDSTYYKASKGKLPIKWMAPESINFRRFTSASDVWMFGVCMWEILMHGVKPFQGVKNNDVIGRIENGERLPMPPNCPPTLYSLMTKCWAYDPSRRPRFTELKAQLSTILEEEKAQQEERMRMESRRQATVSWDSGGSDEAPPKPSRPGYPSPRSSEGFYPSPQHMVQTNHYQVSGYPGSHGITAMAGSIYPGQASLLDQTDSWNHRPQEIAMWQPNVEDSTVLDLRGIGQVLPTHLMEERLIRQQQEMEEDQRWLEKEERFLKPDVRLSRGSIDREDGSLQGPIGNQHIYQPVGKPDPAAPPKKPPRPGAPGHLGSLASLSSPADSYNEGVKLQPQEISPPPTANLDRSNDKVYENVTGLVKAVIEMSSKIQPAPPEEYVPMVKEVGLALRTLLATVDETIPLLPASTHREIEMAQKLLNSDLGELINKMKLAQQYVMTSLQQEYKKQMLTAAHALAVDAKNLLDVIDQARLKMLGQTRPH

target: PTK2 (UniProt Q05397); test: number of time points (of 5) at which kinase-Nluc abundance scored as decreased, DMSO-normalised (count); higher = more persistent destabilization; conditions: K562; 2-18 h

`COc1ccc(Cn2cc(C(=O)N=Nc3c(O)[nH]c4c(C)cccc34)nn2)cc1` [MARK4 inhibitor 1] (10 µM) was tested. Which “number of time points” value did it give?
The value was 0.

How did the “number of time points” value turn out when `COc1cc([N+](=O)[O-])ccc1S(=O)(=O)N1C[C@@H](CN2CCN(c3ccccn3)CC2)[C@H](c2cccc(F)c2)C1` (relative stereo) (10 µM) was run?
The value was 0.

For `Cc1cc(Nc2nc(N[C@@H](C)c3ccc(F)cc3)c(C#N)cc2F)n[nH]1` (10 µM), which “number of time points” value is on record?
The value was 0.

How did the “number of time points” value turn out when `Cc1ccc(S(=O)(=O)/C=C/C#N)cc1` (10 µM) was run?
The value was 0.

With `Cc1c(CN2CCN(S(C)(=O)=O)CC2)sc2c(N3CCOCC3)nc(-c3cnc(N)nc3)nc12` (2.5 µM) as the molecule, how does the “number of time points” value read?
The value was 3.

`COc1ccc(-c2ccc3c(N4CCOC[C@@H]4C)nc(N4CCOC[C@@H]4C)nc3n2)cc1CO` (2.5 µM) was tested. Which “number of time points” value did it give?
The value was 3.

How did the “number of time points” value turn out when `CCN(CC)S(=O)(=O)c1ccc(OC)c(N2CCN(C(=O)c3ccc(F)cc3C(F)(F)F)CC2)c1` (10 µM) was run?
Its value is 0.

With `CC1CN(C(=O)Nc2ccc(Cl)c(Cl)c2)C(=Nc2ccc(F)cc2)S1` (centres undefined) (10 µM) as the molecule, how does the “number of time points” value read?
The value was 0.

`COCCO[C@@H]1[C@H](O)[C@@H](CO)O[C@H]1n1cnc2c(=O)[nH]c(N)nc21` [2′-O-(2-Methoxyethyl)guanosine] (10 µM) was tested. Which “number of time points” value did it give?
Its value is 0.

`COc1cc(F)c(F)c(Nc2ccc(I)cc2F)c1NS(=O)(=O)C1(C[C@H](O)CO)CC1` [Refametinib] (10 µM) was tested. Which “number of time points” value did it give?
The value was 0.

`CC(C)=CC[C@H](O)C1=CC(=O)c2c(O)ccc(O)c2C1=O` [(-)-Alkannin] (2.5 µM) was tested. Which “number of time points” value did it give?
Its value is 0.

How did the “number of time points” value turn out when `C[C@@]1(O)CCC[C@H]1n1c(=O)c(C(F)F)cc2cnc(NC3CCN(S(C)(=O)=O)CC3)nc21` (2.5 µM) was run?
The value was 0.

`CS(=O)(=O)c1ccc(-c2noc(C(F)(F)F)c2-c2ccccc2)cc1` (10 µM) was tested. Which “number of time points” value did it give?
The value was 0.

For `COc1ccc2[nH]cc(/C=C3\C(=O)Nc4ccc(NC(=O)CCN5CCCCC5)cc43)c2c1` (2.5 µM), which “number of time points” value is on record?
Its value is 0.

Which “number of time points” value does the source give for `O=C(Nc1ccc(F)cc1F)[C@H](NC(=S)Nc1cc(C(F)(F)F)cc(C(F)(F)F)c1)c1ccccc1` (2.5 µM) here?
Its value is 0.

`CC(C)CN[C@H]1CS(=O)(=O)C[C@@H]1S(=O)(=O)c1ccc(Cl)cc1` (10 µM) was tested. Which “number of time points” value did it give?
The value was 0.

For `COc1ccc(C2CC(c3ccccc3)=NN2c2ccc(S(N)(=O)=O)cc2)cc1` (centres undefined) (10 µM), which “number of time points” value is on record?
The value was 0.

Which “number of time points” value does the source give for `CC/C=C\C/C=C\C/C=C\CCCCCCCC(=O)O` [α-Linolenic acid] (10 µM) here?
Its value is 0.

With `O=C(Nc1nc2ccccc2[nH]1)c1cccc(-n2cccc2)c1` (10 µM) as the molecule, how does the “number of time points” value read?
The value was 0.

For `COc1ncc(-c2nc(N3CCOCC3)nc3c(CN4CCC(C(C)(C)O)CC4)cc(F)cc23)cc1NS(C)(=O)=O` [Linperlisib] (10 µM), which “number of time points” value is on record?
Its value is 0.

How did the “number of time points” value turn out when `COc1ccc([C@H]2c3[nH]c4ccc(Cl)cc4c3CCN2C(=O)Oc2ccc(Cl)cc2)cc1` (2.5 µM) was run?
Its value is 0.

Which “number of time points” value does the source give for `COc1c(NC(=O)C(=O)c2ccc(OCCN3CCOCC3)c3ccccc23)cc(C(C)(C)C)cc1NS(C)(=O)=O` (2.5 µM) here?
Its value is 0.

Which “number of time points” value does the source give for `COc1ccc([C@@H]2CC(=O)c3c(O)cc(O)cc3O2)cc1O` [Hesperetin] (10 µM) here?
Its value is 0.

With `N#Cc1cccc(-c2c[nH]c3ncnc(N4CCOCC4)c23)c1` (10 µM) as the molecule, how does the “number of time points” value read?
The value was 0.

`C/C(=C1/C(=O)Nc2ccc(NC(N)=O)cc21)c1ccc[nH]1` (10 µM) was tested. Which “number of time points” value did it give?
Its value is 0.

Which “number of time points” value does the source give for `Nc1ncnc2c1c(-c1ccc(Oc3ccccc3)cc1)nn2C1CCNCC1` [N-piperidine Ibrutinib (hydrochloride)] (10 µM) here?
Its value is 0.

`N#Cc1ccc2ncnc(NC3CCC(N4CCOCC4)CC3)c2c1` (centres undefined) (10 µM) was tested. Which “number of time points” value did it give?
The value was 0.

`CC(=O)c1c(C)c2cnc(Nc3ccc(N4CCN(CCCCNC(=O)COc5cccc6c5C(=O)N(C5CCC(=O)NC5=O)C6=O)CC4)cn3)nc2n(C2CCCC2)c1=O` (centres undefined) (10 µM) was tested. Which “number of time points” value did it give?
The value was 0.

`CC(C)=CC(=O)CCC(=O)N1CCN(Cc2cc3nc(-c4cccc5[nH]ncc45)nc(N4CCOCC4)c3s2)CC1` (10 µM) was tested. Which “number of time points” value did it give?
Its value is 1.

`Cc1ccc(S(=O)(=O)Nc2ccccc2C=Nc2ccccc2NS(=O)(=O)c2ccc(C)cc2)cc1` (10 µM) was tested. Which “number of time points” value did it give?
Its value is 0.

Which “number of time points” value does the source give for `NCCN1CCN(C/C=C/C(=O)N2CCC[C@@H](n3nc(-c4ccc(Oc5ccccc5)cc4)c4c(N)ncnc43)C2)CC1` [Ibrutinib-MPEA] (10 µM) here?
The value was 0.

For `O=C(CNC(=O)c1ccc(-c2ccccc2)cc1)NC1CCCc2ccccc21` (centres undefined) [TAO Kinase inhibitor 1] (10 µM), which “number of time points” value is on record?
The value was 0.

`CC(C)CN(CC(=O)N1CCN(CC(OCc2ccc3ccccc3c2)c2ccc(Cl)cc2Cl)CC1)CC(C)C` (centres undefined) [LYN-1604 (dihydrochloride)] (2.5 µM) was tested. Which “number of time points” value did it give?
The value was 0.

`CO[C@H]1C[C@@H]2CC[C@@H](C)[C@@](O)(O2)C(=O)C(=O)N2CCCC[C@H]2C(=O)O[C@H]([C@H](C)C[C@@H]2CC[C@@H](O)[C@H](OC)C2)CC(=O)[C@H](C)/C=C(\C)[C@@H](O)[C@@H](OC)C(=O)[C@H](C)C[C@H](C)/C=C/C=C/C=C/1C` [Rapamycin] (10 µM) was tested. Which “number of time points” value did it give?
Its value is 0.

Which “number of time points” value does the source give for `Cc1ccc(Nc2cc(-c3cccc(N4C(=O)c5ccccc5C4=O)c3)ncn2)cc1NS(C)(=O)=O` (10 µM) here?
Its value is 0.

With `Nc1cc(Nc2ccc(S(N)(=O)=O)cc2)ncn1` (10 µM) as the molecule, how does the “number of time points” value read?
Its value is 0.

With `CCOc1cc(C(=O)N2CCC(N3CCN(C)CC3)CC2)ccc1Nc1ncc2c(n1)N(C1CCCC1)c1ccccc1C(=O)N2C` (10 µM) as the molecule, how does the “number of time points” value read?
The value was 0.

Which “number of time points” value does the source give for `COCCOc1ccc(-c2cn(-c3ccccc3)c3nc[nH]c(=O)c23)cc1` (10 µM) here?
The value was 0.

`Cc1cc(O)c(C(C)C)cc1N=O` [Poloxime] (10 µM) was tested. Which “number of time points” value did it give?
Its value is 0.
